Measured values: the supplement of paper PMC10849652
The list shows a part of the results.

Protein sequences, listed by entry. Tags and fused reporters are not part of them. Lines headed by an entry give the natural chain unless they say otherwise; changes in a name come on top.
UniProt Q02790: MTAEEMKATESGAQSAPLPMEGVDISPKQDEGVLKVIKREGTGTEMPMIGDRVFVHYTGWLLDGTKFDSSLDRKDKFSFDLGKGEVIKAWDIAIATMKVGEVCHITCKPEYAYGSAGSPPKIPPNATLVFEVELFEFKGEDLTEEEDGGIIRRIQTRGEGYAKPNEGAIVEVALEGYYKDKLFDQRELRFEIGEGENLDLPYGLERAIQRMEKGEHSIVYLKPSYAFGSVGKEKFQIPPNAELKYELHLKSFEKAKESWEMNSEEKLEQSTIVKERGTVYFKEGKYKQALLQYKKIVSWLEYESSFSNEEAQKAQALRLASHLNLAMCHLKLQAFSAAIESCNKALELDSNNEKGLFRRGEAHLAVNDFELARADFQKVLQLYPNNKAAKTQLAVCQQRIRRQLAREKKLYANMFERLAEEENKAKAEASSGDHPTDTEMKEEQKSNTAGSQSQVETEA
UniProt Q9Y3D6: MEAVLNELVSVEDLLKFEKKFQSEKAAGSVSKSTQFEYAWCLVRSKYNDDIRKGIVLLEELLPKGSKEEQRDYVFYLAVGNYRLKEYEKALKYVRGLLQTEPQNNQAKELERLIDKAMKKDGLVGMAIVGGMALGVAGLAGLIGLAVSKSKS
UniProt P37268: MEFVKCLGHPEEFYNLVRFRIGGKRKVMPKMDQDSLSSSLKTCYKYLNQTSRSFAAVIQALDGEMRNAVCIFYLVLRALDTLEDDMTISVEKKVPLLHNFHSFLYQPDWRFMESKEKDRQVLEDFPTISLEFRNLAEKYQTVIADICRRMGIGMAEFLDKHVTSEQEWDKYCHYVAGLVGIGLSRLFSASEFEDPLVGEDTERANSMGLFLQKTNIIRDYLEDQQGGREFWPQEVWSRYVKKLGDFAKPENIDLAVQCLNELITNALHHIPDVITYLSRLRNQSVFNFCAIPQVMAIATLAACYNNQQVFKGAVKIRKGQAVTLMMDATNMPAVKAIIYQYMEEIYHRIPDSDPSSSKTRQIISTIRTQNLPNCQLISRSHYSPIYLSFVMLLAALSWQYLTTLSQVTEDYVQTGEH
UniProt Q14153: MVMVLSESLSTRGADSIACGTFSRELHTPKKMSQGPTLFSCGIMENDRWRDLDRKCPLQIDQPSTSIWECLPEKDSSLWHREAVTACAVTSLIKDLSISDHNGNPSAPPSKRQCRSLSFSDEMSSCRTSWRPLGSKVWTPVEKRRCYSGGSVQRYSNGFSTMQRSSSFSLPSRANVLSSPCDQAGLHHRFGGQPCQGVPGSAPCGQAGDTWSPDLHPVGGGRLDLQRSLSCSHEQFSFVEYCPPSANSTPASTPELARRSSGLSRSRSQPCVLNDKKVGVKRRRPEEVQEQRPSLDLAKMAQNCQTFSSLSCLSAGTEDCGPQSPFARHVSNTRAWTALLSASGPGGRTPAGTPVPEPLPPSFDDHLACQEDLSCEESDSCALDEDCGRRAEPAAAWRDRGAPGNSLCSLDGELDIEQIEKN
UniProt Q9BXW9: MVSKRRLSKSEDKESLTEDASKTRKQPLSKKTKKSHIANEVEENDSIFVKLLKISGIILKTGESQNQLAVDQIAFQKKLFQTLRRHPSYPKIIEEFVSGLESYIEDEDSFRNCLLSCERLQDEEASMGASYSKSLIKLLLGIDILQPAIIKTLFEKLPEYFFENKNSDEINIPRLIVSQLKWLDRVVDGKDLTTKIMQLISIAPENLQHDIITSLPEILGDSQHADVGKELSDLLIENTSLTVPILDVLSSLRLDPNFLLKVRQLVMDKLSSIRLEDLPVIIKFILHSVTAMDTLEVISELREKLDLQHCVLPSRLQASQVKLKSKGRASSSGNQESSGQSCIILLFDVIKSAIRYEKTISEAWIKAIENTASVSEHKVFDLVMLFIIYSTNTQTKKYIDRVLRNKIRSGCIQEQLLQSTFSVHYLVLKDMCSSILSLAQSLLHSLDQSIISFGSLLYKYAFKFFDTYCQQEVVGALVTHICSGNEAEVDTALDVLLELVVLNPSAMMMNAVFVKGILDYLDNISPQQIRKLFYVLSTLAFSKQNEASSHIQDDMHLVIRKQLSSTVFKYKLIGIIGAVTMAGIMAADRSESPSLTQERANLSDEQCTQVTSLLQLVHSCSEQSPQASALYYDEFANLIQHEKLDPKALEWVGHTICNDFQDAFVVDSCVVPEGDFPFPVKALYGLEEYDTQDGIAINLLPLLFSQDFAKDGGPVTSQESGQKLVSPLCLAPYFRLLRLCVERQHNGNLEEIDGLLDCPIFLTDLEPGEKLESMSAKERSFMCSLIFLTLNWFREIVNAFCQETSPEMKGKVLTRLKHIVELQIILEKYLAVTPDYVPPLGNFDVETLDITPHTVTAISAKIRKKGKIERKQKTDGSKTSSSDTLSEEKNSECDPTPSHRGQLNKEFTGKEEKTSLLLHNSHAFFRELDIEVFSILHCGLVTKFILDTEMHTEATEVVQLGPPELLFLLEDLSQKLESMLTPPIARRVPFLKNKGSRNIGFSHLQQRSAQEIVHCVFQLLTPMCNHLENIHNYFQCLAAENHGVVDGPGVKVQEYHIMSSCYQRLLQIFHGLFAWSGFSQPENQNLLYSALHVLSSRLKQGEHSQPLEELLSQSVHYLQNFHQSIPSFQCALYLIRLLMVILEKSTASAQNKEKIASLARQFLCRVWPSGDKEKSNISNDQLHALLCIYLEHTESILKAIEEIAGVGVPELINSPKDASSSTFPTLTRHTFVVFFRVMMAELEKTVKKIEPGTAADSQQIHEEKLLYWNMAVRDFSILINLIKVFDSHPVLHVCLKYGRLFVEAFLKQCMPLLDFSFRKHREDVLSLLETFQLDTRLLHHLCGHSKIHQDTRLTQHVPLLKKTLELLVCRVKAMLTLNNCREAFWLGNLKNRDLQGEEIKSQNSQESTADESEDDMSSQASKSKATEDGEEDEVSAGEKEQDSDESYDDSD
UniProt P98173: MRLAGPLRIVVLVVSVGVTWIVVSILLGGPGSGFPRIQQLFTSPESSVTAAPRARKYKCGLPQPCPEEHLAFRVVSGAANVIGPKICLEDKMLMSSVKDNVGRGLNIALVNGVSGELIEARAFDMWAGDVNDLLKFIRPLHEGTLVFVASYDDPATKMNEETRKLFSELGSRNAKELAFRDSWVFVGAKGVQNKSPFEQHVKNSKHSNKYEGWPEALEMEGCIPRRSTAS
UniProt Q86WN1: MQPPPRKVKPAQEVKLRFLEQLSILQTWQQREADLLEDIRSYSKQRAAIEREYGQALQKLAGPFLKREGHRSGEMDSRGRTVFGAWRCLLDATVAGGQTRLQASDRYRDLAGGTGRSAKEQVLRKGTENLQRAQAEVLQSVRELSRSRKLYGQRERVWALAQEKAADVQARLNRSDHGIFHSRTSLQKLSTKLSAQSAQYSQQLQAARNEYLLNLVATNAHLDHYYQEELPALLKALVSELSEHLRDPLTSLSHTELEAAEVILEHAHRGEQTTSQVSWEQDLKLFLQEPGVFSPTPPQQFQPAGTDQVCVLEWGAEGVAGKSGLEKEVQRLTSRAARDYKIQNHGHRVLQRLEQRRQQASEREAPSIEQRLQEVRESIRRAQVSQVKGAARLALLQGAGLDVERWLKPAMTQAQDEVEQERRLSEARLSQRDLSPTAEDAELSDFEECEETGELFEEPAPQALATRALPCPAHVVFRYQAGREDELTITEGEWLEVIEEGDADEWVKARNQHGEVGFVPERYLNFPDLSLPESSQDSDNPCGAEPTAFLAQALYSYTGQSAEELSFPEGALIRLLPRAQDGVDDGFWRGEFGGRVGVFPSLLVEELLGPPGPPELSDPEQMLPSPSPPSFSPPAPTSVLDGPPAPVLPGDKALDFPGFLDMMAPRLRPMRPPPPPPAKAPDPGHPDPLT
UniProt Q9Y324: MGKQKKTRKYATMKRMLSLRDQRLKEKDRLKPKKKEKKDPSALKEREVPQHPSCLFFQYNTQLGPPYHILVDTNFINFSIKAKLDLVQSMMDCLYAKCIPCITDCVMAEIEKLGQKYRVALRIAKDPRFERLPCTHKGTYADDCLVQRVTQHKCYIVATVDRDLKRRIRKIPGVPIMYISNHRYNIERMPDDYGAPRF
UniProt Q96HJ9: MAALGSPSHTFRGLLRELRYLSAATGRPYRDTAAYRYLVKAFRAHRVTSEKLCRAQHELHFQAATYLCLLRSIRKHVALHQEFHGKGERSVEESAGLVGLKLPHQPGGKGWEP
UniProt Q9NVI1: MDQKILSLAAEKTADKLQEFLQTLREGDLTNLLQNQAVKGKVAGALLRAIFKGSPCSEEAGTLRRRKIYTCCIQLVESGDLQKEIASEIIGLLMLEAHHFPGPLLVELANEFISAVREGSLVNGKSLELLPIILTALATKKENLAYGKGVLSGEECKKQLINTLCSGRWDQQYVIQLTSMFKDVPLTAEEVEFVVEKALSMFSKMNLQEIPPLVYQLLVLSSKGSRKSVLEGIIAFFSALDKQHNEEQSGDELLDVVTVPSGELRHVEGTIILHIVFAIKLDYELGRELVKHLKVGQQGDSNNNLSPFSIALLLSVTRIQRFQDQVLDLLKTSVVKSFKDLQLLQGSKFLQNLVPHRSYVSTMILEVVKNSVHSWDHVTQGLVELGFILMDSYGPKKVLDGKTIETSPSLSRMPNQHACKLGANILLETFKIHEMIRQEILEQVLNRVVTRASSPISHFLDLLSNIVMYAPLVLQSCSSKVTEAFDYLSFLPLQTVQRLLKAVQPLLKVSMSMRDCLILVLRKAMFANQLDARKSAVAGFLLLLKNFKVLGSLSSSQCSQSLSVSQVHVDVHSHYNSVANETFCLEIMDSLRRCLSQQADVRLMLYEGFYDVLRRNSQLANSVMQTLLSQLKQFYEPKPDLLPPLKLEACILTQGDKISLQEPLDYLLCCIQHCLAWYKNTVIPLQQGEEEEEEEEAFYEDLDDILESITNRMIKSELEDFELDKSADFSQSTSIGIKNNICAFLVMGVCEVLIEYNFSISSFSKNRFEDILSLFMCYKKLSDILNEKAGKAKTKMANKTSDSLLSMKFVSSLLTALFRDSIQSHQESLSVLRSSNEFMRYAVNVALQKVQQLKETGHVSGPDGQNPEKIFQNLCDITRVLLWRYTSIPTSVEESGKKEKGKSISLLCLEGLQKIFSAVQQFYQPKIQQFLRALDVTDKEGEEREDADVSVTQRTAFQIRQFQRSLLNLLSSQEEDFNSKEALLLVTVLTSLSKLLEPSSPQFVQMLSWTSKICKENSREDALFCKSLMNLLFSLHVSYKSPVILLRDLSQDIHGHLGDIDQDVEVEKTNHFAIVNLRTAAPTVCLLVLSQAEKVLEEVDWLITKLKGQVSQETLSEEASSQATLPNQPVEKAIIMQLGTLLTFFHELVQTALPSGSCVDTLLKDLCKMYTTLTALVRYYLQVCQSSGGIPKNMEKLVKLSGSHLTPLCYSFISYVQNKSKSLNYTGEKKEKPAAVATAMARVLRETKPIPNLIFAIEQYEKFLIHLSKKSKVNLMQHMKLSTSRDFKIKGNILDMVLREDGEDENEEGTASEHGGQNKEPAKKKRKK
UniProt Q96KR6: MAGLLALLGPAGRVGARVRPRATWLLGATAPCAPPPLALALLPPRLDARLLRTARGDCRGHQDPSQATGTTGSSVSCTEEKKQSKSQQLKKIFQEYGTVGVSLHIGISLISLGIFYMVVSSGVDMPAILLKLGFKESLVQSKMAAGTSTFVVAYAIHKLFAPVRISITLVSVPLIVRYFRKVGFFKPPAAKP
UniProt P16591: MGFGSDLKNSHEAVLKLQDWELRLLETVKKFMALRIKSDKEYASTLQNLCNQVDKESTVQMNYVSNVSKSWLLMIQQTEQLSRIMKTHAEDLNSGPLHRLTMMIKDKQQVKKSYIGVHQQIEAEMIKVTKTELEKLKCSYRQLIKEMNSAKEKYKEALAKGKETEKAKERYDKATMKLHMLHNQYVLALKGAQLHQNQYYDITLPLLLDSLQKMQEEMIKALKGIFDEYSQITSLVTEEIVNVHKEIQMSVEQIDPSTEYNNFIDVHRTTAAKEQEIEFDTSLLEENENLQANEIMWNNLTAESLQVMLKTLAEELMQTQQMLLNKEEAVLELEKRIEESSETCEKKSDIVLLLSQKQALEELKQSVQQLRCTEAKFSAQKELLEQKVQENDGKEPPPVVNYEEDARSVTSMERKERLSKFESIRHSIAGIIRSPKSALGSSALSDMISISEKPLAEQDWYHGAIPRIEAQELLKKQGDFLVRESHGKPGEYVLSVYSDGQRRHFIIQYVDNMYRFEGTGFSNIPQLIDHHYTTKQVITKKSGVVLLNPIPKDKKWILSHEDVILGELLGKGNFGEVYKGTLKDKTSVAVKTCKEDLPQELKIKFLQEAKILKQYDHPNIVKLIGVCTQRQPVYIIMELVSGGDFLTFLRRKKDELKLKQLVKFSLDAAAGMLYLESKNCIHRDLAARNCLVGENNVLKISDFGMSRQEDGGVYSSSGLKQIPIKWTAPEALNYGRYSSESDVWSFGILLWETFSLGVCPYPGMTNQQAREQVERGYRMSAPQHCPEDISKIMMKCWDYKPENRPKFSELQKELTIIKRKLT

compound: CC[C@H](C)[C@@H](C(=O)N[C@@H]([C@@H](C)O)C(=O)N[C@@H](CC(C)C)C(=O)[C@]1(CO1)C)NC(=O)[C@H]([C@@H](C)CC)N(C)C(=O)C [epoxomicin]; test: log2 fold change, soluble protein after heating vs DMSO (PISA); higher = thermal stabilisation; K562 cells, 10 uM, 30 min; active = over 0.2 and 3.5 SD of the protein, either way, in both replicates (recomputed)
Method in brief: (§1)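 K562 cells at 2×10^6 cells/mL were treated with 10 μM compound for 30 min. Aliquots were heated for 3 min across 48°C-58°C, pooled, and extracted in PBS with 0.5% NP-40 at 4°C; soluble protein was the supernatant after 21,000xg for 90 min. Soluble protein was quantified by TMTpro 16plex LC-MS/MS with channel sums equalised, and reported as log2 fold change in thermal stability against DMSO controls, with values from duplicates.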

log2 fold change, inactive:
FKBP4 (UniProt Q02790) 0.033
FBXO42 (UniProt Q6P3S6) 0.056
FASTKD1 (UniProt Q53R41) 0.155
FCHO1 (UniProt O14526) 0.05
FIS1 (UniProt Q9Y3D6) -0.002
FDFT1 (UniProt P37268) 0.06
FBXO38 (UniProt Q6PIJ6) -0.136
FECH isoform 2 (UniProt P22830) -0.088
FAM53B (UniProt Q14153) 0.063
FANCD2 isoform 1 (UniProt Q9BXW9) -0.307
FAM3A (UniProt P98173) 0.029
FBXL8 (UniProt Q96CD0) -0.067
FIZ1 (UniProt Q96SL8) -0.071
FIBP (UniProt O43427) -0.023
FCHSD1 (UniProt Q86WN1) -0.006
FCF1 (UniProt Q9Y324) -0.003
FMC1 (UniProt Q96HJ9) 0.059
FHOD1 (UniProt Q9Y613) -0.171
FNTA (UniProt P49354) 0.019
FAM76A isoform 3 (UniProt Q8TAV0) -0.063
FAM222B (UniProt Q8WU58) -0.139
FDPS (UniProt P14324) 0.028
FBXO6 (UniProt Q9NRD1) -0.029
FAT2 (UniProt Q9NYQ8) -0.047
FANCI (UniProt Q9NVI1) -0.077
FEN1 (UniProt P39748) 0.109
FAM210B (UniProt Q96KR6) -0.05

compound: CCn1c(C(=O)N(C2CC2)C2CC2)cc2c3c(ncn3C)c(Nc3cc(C)n(C)n3)nc21; test: as above
Method in brief: as §1

log2 fold change, inactive:
FGB (UniProt P02675) -0.011
FAM89A (UniProt Q96GI7) 0.034
FBXO38 (UniProt Q6PIJ6) 0.062
FAM53B (UniProt Q14153) -0.05
FER (UniProt P16591) -0.479
FBXL8 (UniProt Q96CD0) -0.046
FCHSD1 (UniProt Q86WN1) -0.045
FAM76A isoform 3 (UniProt Q8TAV0) -0.079
FAM222B (UniProt Q8WU58) 0.045
FAM210B (UniProt Q96KR6) -0.019
FITM2 (UniProt Q8N6M3) 0.066

compound: CCn1cc(-c2ccnc3[nH]c(-c4cccc(CN(C)C)c4)cc23)c(-c2ccc(NC(=O)N(C)C)cc2)n1; test: as above
Method in brief: as §1

log2 fold change, inactive:
FGB (UniProt P02675) -0.076
FKBP4 (UniProt Q02790) -0.051
FBXO42 (UniProt Q6P3S6) 0.002
FASTKD1 (UniProt Q53R41) 0.051
FAM53C (UniProt Q9NYF3) -0.146
FIS1 (UniProt Q9Y3D6) 0.008
FDFT1 (UniProt P37268) -0.06
FECH isoform 2 (UniProt P22830) 0.203
FANCD2 isoform 1 (UniProt Q9BXW9) -0.055
FAM3A (UniProt P98173) 0.066
FER (UniProt P16591) 0.013
FIZ1 (UniProt Q96SL8) -0.125
FIBP (UniProt O43427) -0.023
FCHSD1 (UniProt Q86WN1) 0.004
FCF1 (UniProt Q9Y324) 0.134
FBXO9 (UniProt Q9UK97) 0.009
FMC1 (UniProt Q96HJ9) 0.046
FAM241A (UniProt Q8N8J7) 0.037
FHOD1 (UniProt Q9Y613) 0.093
FMR1 (UniProt Q06787) 0.088
FNTA (UniProt P49354) -0.074
FAM76A isoform 3 (UniProt Q8TAV0) -0.027
FDPS (UniProt P14324) -0.277
FBXO6 (UniProt Q9NRD1) -0.038
FAT2 (UniProt Q9NYQ8) -0.023
FANCI (UniProt Q9NVI1) -0.093
FEN1 (UniProt P39748) -0.174
FAM210B (UniProt Q96KR6) 0.016
FAT4 (UniProt Q6V0I7) -0.011

compound: CN(C)CC(=O)Nc1ccc2[nH]c(=O)c3ccccc3c2c1; test: as above
Method in brief: as §1

log2 fold change, inactive:
FGB (UniProt P02675) -0.124
FKBP4 (UniProt Q02790) 0.019
FBXO42 (UniProt Q6P3S6) -0.019
FASTKD1 (UniProt Q53R41) 0.064
FLT1 (UniProt P17948) -0.168
FCHO1 (UniProt O14526) 0.112
FIS1 (UniProt Q9Y3D6) 0.01
FDFT1 (UniProt P37268) 0.003
FBXO38 (UniProt Q6PIJ6) 0.03
FECH isoform 2 (UniProt P22830) 0.001
FAM53B (UniProt Q14153) -0.008
FANCD2 isoform 1 (UniProt Q9BXW9) 0.026
FAM3A (UniProt P98173) 0.019
FER (UniProt P16591) -0.016
FIZ1 (UniProt Q96SL8) -0.06
FIBP (UniProt O43427) -0.043
FCF1 (UniProt Q9Y324) -0.041
FBXO9 (UniProt Q9UK97) 0.097
FMC1 (UniProt Q96HJ9) -0.057
FAM241A (UniProt Q8N8J7) -0.093
FHOD1 (UniProt Q9Y613) -0.048
FNTA (UniProt P49354) 0.012
FAM76A isoform 3 (UniProt Q8TAV0) 0.532
FDPS (UniProt P14324) 0.111
FBXO6 (UniProt Q9NRD1) 0.036
FAT2 (UniProt Q9NYQ8) -0.06
FANCI (UniProt Q9NVI1) 0.072
FEN1 (UniProt P39748) 0.155
FAM210B (UniProt Q96KR6) 0.018
FAT4 (UniProt Q6V0I7) -0.182
